Test results reported in patent publication US20250129169A1 (Stanford University, published 2025).

Amino acid sequences for entries named in this document (tags omitted). A change or cut given only in a name is not applied to a line headed by its entry.
UniProt P31785: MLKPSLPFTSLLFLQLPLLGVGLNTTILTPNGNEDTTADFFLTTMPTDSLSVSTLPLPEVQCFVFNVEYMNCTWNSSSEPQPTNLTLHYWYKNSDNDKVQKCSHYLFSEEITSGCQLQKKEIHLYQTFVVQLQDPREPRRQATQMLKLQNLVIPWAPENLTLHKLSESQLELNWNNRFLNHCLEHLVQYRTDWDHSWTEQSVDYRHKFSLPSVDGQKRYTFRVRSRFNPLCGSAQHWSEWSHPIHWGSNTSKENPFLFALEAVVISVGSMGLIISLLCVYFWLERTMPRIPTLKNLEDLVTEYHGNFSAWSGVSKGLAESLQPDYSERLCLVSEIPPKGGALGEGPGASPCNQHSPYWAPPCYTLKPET

Molecular target: hγc extracellular domain (a.a. 55-254) (human) (UniProt P31785)
Assay: co-crystal structure of the complex, 2.6 Å

B1: γc-VHH6 (VHH)
VHH: QVQLQESGGGSVQAGGSLRLSCAASGYTYRDYYMGWFRQAPGREREGVASIYTRGSREGSTRYSSSVEGRFTITLDTAKNTLYLQMNSLKPEDTAMYYCAADDRTWLPRVQLGGPRENEYNYWGQGTQVTVSS
notes: also called γC nanobody clone 6
With B1 the binding was “binds”.

Results are given in words; binding and its absence hold for the method and conditions named. A result given as binding can be weak or reduced; the word gives no strength.
